Reference: PubChem BioAssay AID504834 (National Center for Advancing Translational Sciences (NCATS), 2011)
About 22,000 (6.9%) of roughly 320,000 compounds were called active. The inconclusive results got no clear call from the source; some entries with a clear call stand among them for comparison. The call rests on the fitted dose curve; in most records, active means well fitted inhibition curve with a large enough effect; inconclusive means small, poorly fitted or top-dose-only effect, or another doubt; inactive means no such curve, though single readings can be large or run the other way. Potencies of inconclusive entries are doubtful fits and often do not repeat.

assay: Primary qHTS for delayed death inhibitors of the malarial parasite plastid, 96 hour incubation; details: P. falciparum luciferase reporter growth; series mostly up to 28.7 µM; activity change, negative = inhibition: at the top concentration
Procedure, shortened: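 Delayed-death screen, second-generation endpoint: infected erythrocytes, 2% hematocrit, 0.05% parasitemia final; 96 hours at 37 C, 5% CO2; luciferase detection reagent; luminescence decrease equals reduced growth.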
On the % scale 0 is the no-effect control and ±100 the full control effect; potency means the concentration at half of the fitted maximal effect.

| SMILES | Potency | activity change, negative = inhibition |
| --- | --- | --- |
| O=C(N/N=C/c1cccs1)c1cc(-c2ccc3ccccc3c2)n[nH]1 | inconclusive: 11.7 µM [inhibitor, single point] | – |
| COc1ccc(CN(C)CC(=O)Nc2ccccc2C(=O)NC2CC2)cc1OC | – | inactive: -4.57% |
| Cc1ccc(NC(=O)Cn2cc(S(=O)(=O)c3ccc(F)cc3)c(=O)c3cc(F)ccc32)cc1 | inconclusive: 11.7 µM [inhibitor, single point] | – |
| CCOC(=O)c1c(SCC(=O)Nc2nccs2)nc(C)c(C)c1C | inconclusive: 10.4 µM [inhibitor, partial curve, poor fit] | – |
| Cc1ccc(CNC(=O)c2ccc(-n3cccc3)cc2)cc1 | inconclusive: 18.5 µM [inhibitor, single point] | – |
| Cc1c(NC(=O)COC(=O)CSc2ccc([N+](=O)[O-])cc2)c(=O)n(-c2ccccc2)n1C | inconclusive: 10.4 µM [inhibitor, single point] | – |
| COc1ccc(CNc2ccc3cn[nH]c3c2)c(OC)c1OC | inconclusive: 18.5 µM [inhibitor, single point] | – |
| CC(C)(C)N=C1NN=C(c2ccc(S(=O)(=O)N3CCCCC3)cc2)CS1 | inconclusive: 1.04 µM [inhibitor, partial curve, poor fit] | – |
| COc1ccc(NS(=O)(=O)c2cc(NC(=O)c3cc(F)c(F)c(F)c3F)ccc2N2CCCC2)cc1 | inconclusive: 10.4 µM [inhibitor, single point] | – |
| CC(C)C(NC(=O)CCN1C(=O)c2ccccc2C1=O)c1ccccc1 (stereo not given) | – | inactive: 40.7% |
| CCN(CC)S(=O)(=O)c1ccc(N/N=C/c2ccc(O)cc2)nc1 | inconclusive: 18.5 µM [inhibitor, single point] | – |
| COc1cc(C(=O)N(C)C2CCCCC2)ccc1OC1CCN(C(C)=O)CC1 | inconclusive: 18.5 µM [inhibitor, single point] | – |
| COC(=O)COc1ccc(C2Nc3c(Cl)ccc(C(=O)O)c3C3C=CCC32)cc1 (stereo not given) | inconclusive: 4.15 µM [inhibitor, partial curve, poor fit] | – |
| CS(=O)(=O)c1cccc(C(=O)Nc2cccc(-c3nc4ccccc4[nH]3)c2)c1 | inconclusive: 18.5 µM [inhibitor, single point] | – |
| COCCNC(=O)CN(CCc1ccccc1)S(=O)(=O)c1ccc(OC)cc1 | inconclusive: 16.5 µM [inhibitor, single point] | – |
| CCC(c1nnnn1C(C)(C)C)N1CCN(c2cc(Cl)ccc2C)CC1 (stereo not given) | active: 0.147 µM | – |
| COc1ccc(/C=N/NC(=O)c2ccc(CSc3nncn3C)cc2)cc1OC | inconclusive: 13.1 µM [inhibitor, partial curve, poor fit] | – |
| O=C(Nc1ccccc1C(=O)N1CCCCCC1)c1ccc(F)cc1 | inconclusive: 1.04 µM [inhibitor, full curve, poor fit] | – |
| CCCN(CC(=O)Nc1ccc(C(N)=O)cc1)CC(=O)Nc1ccc(F)c(F)c1F | – | inactive: -11.5% |
| Cc1ccc2c(c1)c1ccc3c(c1n2C)C(=O)C=CC3=O | inconclusive: 6.57 µM [inhibitor, partial curve, poor fit] | – |
| CCCCC1=CC2=CC(=O)C(C)(OC(=O)CC)C(=O)C2=CN1c1ccccc1 (stereo not given) | active: 13.1 µM | – |
| Cc1ccc2c(C(=O)CN3CCCCC3)c(C)[nH]c2c1 | – | inactive: -10.6% |
| COc1cccc(-c2nc(-c3ccccc3)[nH]c(=O)c2C#N)c1 | inconclusive: 11.7 µM [inhibitor, single point] | – |
| CC(C)(Oc1ccc(Cl)cc1)C(=O)N(Cc1ccccc1)c1ccccn1 | active: 1.85 µM | – |

17 entries from above, comma-delimited:
SMILES,Potency,"activity change, negative = inhibition"
O=C(N/N=C/c1cccs1)c1cc(-c2ccc3ccccc3c2)n[nH]1,"inconclusive: 11.7 µM [inhibitor, single point]",–
Cc1ccc(NC(=O)Cn2cc(S(=O)(=O)c3ccc(F)cc3)c(=O)c3cc(F)ccc32)cc1,"inconclusive: 11.7 µM [inhibitor, single point]",–
CCOC(=O)c1c(SCC(=O)Nc2nccs2)nc(C)c(C)c1C,"inconclusive: 10.4 µM [inhibitor, partial curve, poor fit]",–
Cc1c(NC(=O)COC(=O)CSc2ccc([N+](=O)[O-])cc2)c(=O)n(-c2ccccc2)n1C,"inconclusive: 10.4 µM [inhibitor, single point]",–
CC(C)(C)N=C1NN=C(c2ccc(S(=O)(=O)N3CCCCC3)cc2)CS1,"inconclusive: 1.04 µM [inhibitor, partial curve, poor fit]",–
COc1ccc(NS(=O)(=O)c2cc(NC(=O)c3cc(F)c(F)c(F)c3F)ccc2N2CCCC2)cc1,"inconclusive: 10.4 µM [inhibitor, single point]",–
CCN(CC)S(=O)(=O)c1ccc(N/N=C/c2ccc(O)cc2)nc1,"inconclusive: 18.5 µM [inhibitor, single point]",–
COc1cc(C(=O)N(C)C2CCCCC2)ccc1OC1CCN(C(C)=O)CC1,"inconclusive: 18.5 µM [inhibitor, single point]",–
COC(=O)COc1ccc(C2Nc3c(Cl)ccc(C(=O)O)c3C3C=CCC32)cc1 (stereo not given),"inconclusive: 4.15 µM [inhibitor, partial curve, poor fit]",–
CS(=O)(=O)c1cccc(C(=O)Nc2cccc(-c3nc4ccccc4[nH]3)c2)c1,"inconclusive: 18.5 µM [inhibitor, single point]",–
COCCNC(=O)CN(CCc1ccccc1)S(=O)(=O)c1ccc(OC)cc1,"inconclusive: 16.5 µM [inhibitor, single point]",–
CCC(c1nnnn1C(C)(C)C)N1CCN(c2cc(Cl)ccc2C)CC1 (stereo not given),active: 0.147 µM,–
O=C(Nc1ccccc1C(=O)N1CCCCCC1)c1ccc(F)cc1,"inconclusive: 1.04 µM [inhibitor, full curve, poor fit]",–
CCCN(CC(=O)Nc1ccc(C(N)=O)cc1)CC(=O)Nc1ccc(F)c(F)c1F,–,inactive: -11.5%
Cc1ccc2c(c1)c1ccc3c(c1n2C)C(=O)C=CC3=O,"inconclusive: 6.57 µM [inhibitor, partial curve, poor fit]",–
Cc1ccc2c(C(=O)CN3CCCCC3)c(C)[nH]c2c1,–,inactive: -10.6%
COc1cccc(-c2nc(-c3ccccc3)[nH]c(=O)c2C#N)c1,"inconclusive: 11.7 µM [inhibitor, single point]",–

More results follow:

| SMILES | Potency | activity change, negative = inhibition |
| --- | --- | --- |
| CCN(CC)S(=O)(=O)c1ccc(Cl)c(C(=O)OC2CC(C)OC2=O)c1 (stereo not given) | – | inactive: 14.7% |
| Cc1cc(C)nc(NS(=O)(=O)c2ccc(NC(=O)Cc3ccccc3)cc2)n1 | active: 13.1 µM | – |
| COc1ccc(C)cc1NC(=O)C(NC(=O)c1cc(OC)c(OC)c(OC)c1)C(C)C (stereo not given) | active: 13.1 µM | – |
| Cn1c(=O)[nH]c(Nc2ccccc2)c([N+](=O)[O-])c1=O | inconclusive: 0.0059 µM [inhibitor, full curve, poor fit] | – |
| COc1cc(OC)cc(N2C(=O)CSCC2=O)c1 | – | inactive: 25.5% |
| Cc1c(C)c2ccc(OCC(=O)N(C)C3CCS(=O)(=O)C3)c(C)c2oc1=O (stereo not given) | inconclusive: 18.5 µM [inhibitor, single point] | – |
| Cc1ccc(C)c(NC(=O)c2cc(-c3cc(C)cc(C)c3O)n[nH]2)c1 | inconclusive: 18.5 µM [inhibitor, single point] | – |
| COC(=O)c1cccc(NC(=O)c2cccnc2C(=O)O)c1C | – | inactive: 19.2% |
| COc1ccc(CCNC(=O)CCC(=O)n2ncc3ccc(Cl)cc32)cc1OC | inconclusive: 2.94 µM [inhibitor, full curve] | – |
| CCCN(CCC)c1nc2ccccc2n2c(C)nnc12 | – | inactive: -21.5% [at 5.75 µM] |
| Cc1[nH]c(=O)c(C#N)cc1-c1csc(-c2ccccc2)n1 | – | inactive: 18.9% |
| CCCCNCC(O)(c1ccc(Cl)cc1)c1ccc(Cl)cc1 | active: 2.33 µM | – |
| Cc1cc(C)c2c(n1)nn1c(N3CCN(c4ccccc4)CC3)cc(C)nc21 | inconclusive: 0.738 µM [inhibitor, full curve] | – |
| COc1ccc(C(=O)O)cc1NC(=S)NC(=O)c1ccc(-c2ccc(Cl)cc2)o1 | inconclusive: 10.4 µM [inhibitor, single point] | – |
| O=C1CCN(Cc2nc(-c3ccc(Cl)cc3)no2)CCN1 | active: 10.4 µM | – |
| COC(=O)c1sc(S(=O)(=O)N2CCN(c3ccccc3)CC2)c(C(=O)OC)c1C | inconclusive: 2.94 µM [inhibitor, single point] | – |
| COc1cc2c(cc1OC)C1OC(c3ccsc3)(C2)Oc2cc(C)oc(=O)c21 (stereo not given) | active: 1.69 µM | – |
| O=C(CCc1ccc(Oc2cc([N+](=O)[O-])cc([N+](=O)[O-])c2)cc1)N1CCCCC1 | inconclusive: 0.294 µM [inhibitor, full curve, poor fit] | – |
| Cc1nc(N(C)C)c2sc(=S)n(-c3ccccc3)c2n1 | inconclusive: 0.0033 µM [inhibitor, full curve, poor fit] | – |
| O=C(CN1CCCC1)N1c2ccccc2C=Cc2ccccc21 | – | inactive: -21.9% |
| CCN(C(=O)CN1CCCCC1)C1(C)C(=O)c2ccccc2C1=O | inconclusive: 0.104 µM [inhibitor, full curve, poor fit] | – |
| CCN1CCN(C(c2cccs2)C(C)NS(=O)(=O)c2ccccc2)CC1 (stereo not given) | inconclusive: 4.15 µM [inhibitor, single point] | – |
| Cc1ccc2c(CN(C)Cc3ccc(Cl)cc3Cl)cc(=O)oc2c1 | inconclusive: 9.28 µM [inhibitor, single point] | – |
| COC(=O)[C@H](CCSC)NC(=O)Nc1cccc(Br)c1 | – | inactive: 41.6% |

| SMILES | Potency | activity change, negative = inhibition |
| --- | --- | --- |
| CC(CC(=O)NCCc1ccc(S(N)(=O)=O)cc1)c1ccccc1 (stereo not given) | inconclusive: 10.4 µM [inhibitor, single point] | – |
| CCS(=O)(=O)Nc1ccc(C2=NN(C(=S)Nc3ccccc3)C(c3ccco3)C2)cc1 (stereo not given) | inconclusive: 9.28 µM [inhibitor, single point] | – |
| COC(=O)COc1cccc(NC(=O)C(c2ccccc2)c2ccccc2)c1 | inconclusive: 13.1 µM [inhibitor, partial curve] | – |
| O=C(NCN1C(=O)C2C3C=CC(C3)C2C1=O)Nc1ccccc1O (stereo not given) | inconclusive: 0.0047 µM [inhibitor, full curve, poor fit] | – |
| Cc1ccc2c(Cl)cc(Cl)c(OCC(=O)N(C(C)C)C(C)C)c2n1 | inconclusive: 0.586 µM [inhibitor, full curve, poor fit] | – |
| C1CN(CC23CC4CC(CC(C4)C2)C3)CCO1 | inconclusive: 18.5 µM [inhibitor, single point] | – |
| CCN(CC)S(=O)(=O)c1cccc(NC2=NCCCCC2)c1 | – | inactive: 46.4% |
| CCNc1c(NC(=O)c2ccc3c(c2)OCO3)c(=O)oc2ccccc12 | inconclusive: 1.31 µM [inhibitor, full curve] | – |
| O=C(COC(=O)c1ccccn1)c1cccc(Br)c1 | – | inactive: 2.79% |
| COc1ccc(S(=O)(=O)NC2CC3CCC2C3)cc1 (stereo not given) | active: 8.28 µM | – |
| N#C/C(=C\c1ccccc1)C(=O)NC(=O)Oc1ccccc1 | – | inactive: 5.38% |
| Cc1cccc(-c2ocnc2C(=O)Nc2ccccc2NC(=O)c2ccccn2)c1 | inconclusive: 10.4 µM [inhibitor, single point] | – |
| Cc1cc(Nc2cccc(F)c2)nc(N2CCOCC2)n1 | – | inactive: 39.3% |
| COc1cc(NC(=O)c2ccc([N+](=O)[O-])o2)ccc1NC(=O)c1cccs1 | – | inactive: 38.8% |
| CN(C)S(=O)(=O)c1cccc(-n2sc3ccccc3c2=O)c1 | inconclusive: 13.1 µM [inhibitor, single point] | – |
| CC(C)COc1ccc(C(=O)CCN2CCCCC2)cc1 | – | inactive: -23.3% |
| Cc1sc2nc(C)n(/N=C/N(C)C)c(=O)c2c1C | inconclusive: 4.15 µM [inhibitor, full curve] | – |
| O=c1[nH]c(N/N=C\c2ccc(F)cc2)nc2ccccc12 | inconclusive: 18.5 µM [inhibitor, single point] | – |
| CCOC(=O)c1cc2sccc2n1CC(=O)Nc1ccc(OC)cc1 | inconclusive: 4.65 µM [inhibitor, partial curve, poor fit] | – |
| Nc1nc(-c2cccnc2)nn1C(=O)c1ccc(F)cc1 | inconclusive: 0.0047 µM [inhibitor, full curve, poor fit] | – |
| O=C(COc1ccccc1O)NC1CCCC1 | – | inactive: -9.08% |
| CCN(CCCNC(=O)CCC(=O)N1CCOc2ccccc21)Cc1ccccc1 | inconclusive: 18.5 µM [inhibitor, single point] | – |
